We go through 23 targets from the supplement of paper PMC10849652.

Chains of the proteins cited; added tags and fusions are not shown. Lines headed by an entry give the natural chain unless they say otherwise; changes in a name come on top.
UniProt P20020: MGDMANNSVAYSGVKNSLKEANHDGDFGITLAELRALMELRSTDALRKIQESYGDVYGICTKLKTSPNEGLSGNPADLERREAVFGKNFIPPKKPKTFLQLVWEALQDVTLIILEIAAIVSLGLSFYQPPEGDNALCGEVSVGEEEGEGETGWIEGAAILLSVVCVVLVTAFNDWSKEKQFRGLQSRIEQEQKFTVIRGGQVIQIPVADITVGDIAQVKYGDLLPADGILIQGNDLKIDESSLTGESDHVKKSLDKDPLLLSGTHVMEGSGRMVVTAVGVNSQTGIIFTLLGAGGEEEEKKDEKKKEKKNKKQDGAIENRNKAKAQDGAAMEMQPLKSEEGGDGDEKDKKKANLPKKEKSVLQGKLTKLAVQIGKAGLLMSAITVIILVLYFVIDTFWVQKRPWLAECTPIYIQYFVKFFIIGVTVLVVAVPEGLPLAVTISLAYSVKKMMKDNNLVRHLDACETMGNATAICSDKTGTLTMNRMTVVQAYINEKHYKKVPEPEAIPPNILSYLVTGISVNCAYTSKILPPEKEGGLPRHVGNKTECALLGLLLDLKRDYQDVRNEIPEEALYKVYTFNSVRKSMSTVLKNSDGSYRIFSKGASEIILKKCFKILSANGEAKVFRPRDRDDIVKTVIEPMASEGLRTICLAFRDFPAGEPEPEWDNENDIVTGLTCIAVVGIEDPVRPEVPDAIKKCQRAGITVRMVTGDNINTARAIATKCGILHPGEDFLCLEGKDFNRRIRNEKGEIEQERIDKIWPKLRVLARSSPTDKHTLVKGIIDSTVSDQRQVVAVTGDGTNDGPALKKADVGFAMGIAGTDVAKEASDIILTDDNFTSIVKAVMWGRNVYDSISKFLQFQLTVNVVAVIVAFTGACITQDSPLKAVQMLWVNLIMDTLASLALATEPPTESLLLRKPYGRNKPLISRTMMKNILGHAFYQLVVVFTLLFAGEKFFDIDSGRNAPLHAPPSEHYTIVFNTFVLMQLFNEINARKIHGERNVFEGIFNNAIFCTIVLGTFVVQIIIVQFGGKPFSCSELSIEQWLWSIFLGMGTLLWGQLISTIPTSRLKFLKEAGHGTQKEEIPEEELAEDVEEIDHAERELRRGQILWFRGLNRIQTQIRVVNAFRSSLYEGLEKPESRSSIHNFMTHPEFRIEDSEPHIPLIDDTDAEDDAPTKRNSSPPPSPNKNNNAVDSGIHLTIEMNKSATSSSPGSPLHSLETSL
UniProt Q9NVP2, whole entry, looked up: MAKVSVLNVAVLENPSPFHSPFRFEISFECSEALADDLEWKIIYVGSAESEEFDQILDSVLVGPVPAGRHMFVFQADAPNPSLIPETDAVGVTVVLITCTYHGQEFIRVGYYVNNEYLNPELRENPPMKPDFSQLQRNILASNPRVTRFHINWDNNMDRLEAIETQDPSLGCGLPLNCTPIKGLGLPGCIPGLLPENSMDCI
UniProt Q93084: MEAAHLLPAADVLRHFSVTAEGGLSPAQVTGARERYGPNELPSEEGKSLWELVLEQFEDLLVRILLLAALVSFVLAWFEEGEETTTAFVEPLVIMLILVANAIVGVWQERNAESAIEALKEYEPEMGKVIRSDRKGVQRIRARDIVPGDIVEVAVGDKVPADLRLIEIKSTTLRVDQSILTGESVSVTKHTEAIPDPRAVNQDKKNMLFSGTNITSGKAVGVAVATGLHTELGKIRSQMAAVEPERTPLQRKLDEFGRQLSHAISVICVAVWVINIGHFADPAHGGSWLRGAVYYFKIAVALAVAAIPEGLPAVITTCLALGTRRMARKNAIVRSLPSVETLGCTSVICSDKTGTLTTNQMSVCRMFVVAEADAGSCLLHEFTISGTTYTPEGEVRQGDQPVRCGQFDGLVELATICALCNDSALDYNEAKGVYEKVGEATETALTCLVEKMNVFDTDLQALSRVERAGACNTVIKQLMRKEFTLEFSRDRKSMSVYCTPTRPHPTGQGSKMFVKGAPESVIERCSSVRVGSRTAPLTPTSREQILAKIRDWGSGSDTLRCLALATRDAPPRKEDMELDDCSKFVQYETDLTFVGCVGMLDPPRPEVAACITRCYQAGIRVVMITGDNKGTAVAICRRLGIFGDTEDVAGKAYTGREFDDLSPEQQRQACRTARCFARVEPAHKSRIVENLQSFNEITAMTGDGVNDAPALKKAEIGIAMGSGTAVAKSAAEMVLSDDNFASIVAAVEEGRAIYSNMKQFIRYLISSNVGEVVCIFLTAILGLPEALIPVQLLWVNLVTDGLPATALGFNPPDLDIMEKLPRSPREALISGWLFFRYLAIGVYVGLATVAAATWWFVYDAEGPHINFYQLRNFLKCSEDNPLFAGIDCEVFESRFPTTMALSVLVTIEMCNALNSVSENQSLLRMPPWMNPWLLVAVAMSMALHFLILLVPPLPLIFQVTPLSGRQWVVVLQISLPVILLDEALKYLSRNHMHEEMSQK
UniProt Q8NHH9: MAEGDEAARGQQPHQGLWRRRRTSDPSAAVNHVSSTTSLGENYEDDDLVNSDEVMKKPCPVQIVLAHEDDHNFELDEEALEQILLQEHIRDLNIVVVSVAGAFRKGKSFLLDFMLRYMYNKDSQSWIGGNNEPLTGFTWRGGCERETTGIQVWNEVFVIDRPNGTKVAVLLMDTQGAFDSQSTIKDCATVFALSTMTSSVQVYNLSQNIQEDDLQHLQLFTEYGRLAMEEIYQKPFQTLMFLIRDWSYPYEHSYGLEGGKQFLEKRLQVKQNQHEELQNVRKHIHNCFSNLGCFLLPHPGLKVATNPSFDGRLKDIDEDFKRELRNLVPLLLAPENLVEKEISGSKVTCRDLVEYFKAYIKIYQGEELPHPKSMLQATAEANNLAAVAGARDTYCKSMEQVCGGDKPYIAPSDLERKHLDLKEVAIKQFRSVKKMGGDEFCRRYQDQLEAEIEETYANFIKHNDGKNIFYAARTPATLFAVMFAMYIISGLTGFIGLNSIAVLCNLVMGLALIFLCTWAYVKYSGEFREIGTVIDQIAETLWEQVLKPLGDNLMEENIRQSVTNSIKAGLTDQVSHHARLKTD
UniProt P08243: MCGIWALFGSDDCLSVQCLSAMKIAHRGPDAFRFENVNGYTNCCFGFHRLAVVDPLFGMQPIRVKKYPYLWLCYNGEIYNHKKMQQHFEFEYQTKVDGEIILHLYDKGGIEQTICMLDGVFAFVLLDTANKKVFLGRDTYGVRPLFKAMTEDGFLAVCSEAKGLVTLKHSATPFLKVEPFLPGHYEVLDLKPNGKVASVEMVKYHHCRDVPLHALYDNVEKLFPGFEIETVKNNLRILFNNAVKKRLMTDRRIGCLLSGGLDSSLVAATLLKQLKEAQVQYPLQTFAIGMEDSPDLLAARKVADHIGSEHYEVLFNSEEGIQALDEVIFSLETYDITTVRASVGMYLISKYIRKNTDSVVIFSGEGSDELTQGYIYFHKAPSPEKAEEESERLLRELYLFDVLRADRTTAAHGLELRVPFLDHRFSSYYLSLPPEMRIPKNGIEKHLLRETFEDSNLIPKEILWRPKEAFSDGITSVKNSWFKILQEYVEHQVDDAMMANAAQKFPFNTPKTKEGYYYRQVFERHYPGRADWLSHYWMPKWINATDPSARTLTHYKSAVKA
UniProt P30049: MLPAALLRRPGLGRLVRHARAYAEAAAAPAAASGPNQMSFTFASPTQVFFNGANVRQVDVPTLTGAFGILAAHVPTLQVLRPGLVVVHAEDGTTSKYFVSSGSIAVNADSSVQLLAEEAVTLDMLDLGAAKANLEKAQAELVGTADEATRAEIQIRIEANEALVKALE
UniProt Q9Y4P1: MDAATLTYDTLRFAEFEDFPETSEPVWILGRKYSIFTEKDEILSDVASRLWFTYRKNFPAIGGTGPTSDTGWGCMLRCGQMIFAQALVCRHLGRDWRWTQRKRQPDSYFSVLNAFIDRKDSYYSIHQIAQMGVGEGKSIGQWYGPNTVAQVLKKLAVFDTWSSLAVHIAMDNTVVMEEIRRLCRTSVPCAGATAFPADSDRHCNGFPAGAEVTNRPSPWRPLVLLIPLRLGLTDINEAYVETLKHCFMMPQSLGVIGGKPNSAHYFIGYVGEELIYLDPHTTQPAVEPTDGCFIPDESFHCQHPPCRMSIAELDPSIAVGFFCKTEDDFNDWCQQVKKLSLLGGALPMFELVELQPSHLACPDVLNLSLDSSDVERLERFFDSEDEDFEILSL
UniProt Q9UII2: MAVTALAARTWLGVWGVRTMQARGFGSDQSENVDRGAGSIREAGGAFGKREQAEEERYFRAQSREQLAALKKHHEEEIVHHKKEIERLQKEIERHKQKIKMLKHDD
UniProt P15313, whole entry, looked up: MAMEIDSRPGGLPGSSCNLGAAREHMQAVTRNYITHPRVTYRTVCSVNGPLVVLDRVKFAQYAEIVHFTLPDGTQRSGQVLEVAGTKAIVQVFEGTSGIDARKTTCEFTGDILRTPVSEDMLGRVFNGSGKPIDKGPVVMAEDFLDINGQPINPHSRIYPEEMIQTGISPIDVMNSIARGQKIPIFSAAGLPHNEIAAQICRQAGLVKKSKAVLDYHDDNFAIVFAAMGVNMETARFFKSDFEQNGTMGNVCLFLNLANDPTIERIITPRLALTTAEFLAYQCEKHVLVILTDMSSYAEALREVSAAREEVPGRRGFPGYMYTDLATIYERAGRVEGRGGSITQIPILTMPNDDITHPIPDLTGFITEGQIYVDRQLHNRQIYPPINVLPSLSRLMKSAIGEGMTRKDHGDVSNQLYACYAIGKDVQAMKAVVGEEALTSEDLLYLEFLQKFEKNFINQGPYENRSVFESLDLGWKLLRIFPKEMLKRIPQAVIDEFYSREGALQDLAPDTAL
UniProt P56378: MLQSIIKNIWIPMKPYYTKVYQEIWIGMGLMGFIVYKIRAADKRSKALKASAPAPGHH
UniProt P24539: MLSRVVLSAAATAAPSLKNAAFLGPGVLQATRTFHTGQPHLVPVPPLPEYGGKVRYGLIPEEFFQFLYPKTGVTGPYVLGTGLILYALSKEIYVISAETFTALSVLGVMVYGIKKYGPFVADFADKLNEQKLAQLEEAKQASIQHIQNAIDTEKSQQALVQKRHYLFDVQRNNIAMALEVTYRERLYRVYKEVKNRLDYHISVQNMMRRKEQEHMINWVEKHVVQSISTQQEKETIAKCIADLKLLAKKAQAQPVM
UniProt Q9Y679: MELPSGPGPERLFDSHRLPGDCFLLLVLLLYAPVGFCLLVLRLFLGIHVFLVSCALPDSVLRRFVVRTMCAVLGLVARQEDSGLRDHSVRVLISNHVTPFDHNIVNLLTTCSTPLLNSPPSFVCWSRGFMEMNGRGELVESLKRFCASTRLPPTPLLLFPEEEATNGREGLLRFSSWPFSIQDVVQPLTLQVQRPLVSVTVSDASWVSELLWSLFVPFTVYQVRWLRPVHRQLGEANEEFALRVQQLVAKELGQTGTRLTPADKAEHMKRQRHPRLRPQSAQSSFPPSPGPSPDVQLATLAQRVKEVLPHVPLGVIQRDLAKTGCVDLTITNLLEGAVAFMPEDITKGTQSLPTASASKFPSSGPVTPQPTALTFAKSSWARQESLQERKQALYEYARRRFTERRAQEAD
UniProt Q9UBB4: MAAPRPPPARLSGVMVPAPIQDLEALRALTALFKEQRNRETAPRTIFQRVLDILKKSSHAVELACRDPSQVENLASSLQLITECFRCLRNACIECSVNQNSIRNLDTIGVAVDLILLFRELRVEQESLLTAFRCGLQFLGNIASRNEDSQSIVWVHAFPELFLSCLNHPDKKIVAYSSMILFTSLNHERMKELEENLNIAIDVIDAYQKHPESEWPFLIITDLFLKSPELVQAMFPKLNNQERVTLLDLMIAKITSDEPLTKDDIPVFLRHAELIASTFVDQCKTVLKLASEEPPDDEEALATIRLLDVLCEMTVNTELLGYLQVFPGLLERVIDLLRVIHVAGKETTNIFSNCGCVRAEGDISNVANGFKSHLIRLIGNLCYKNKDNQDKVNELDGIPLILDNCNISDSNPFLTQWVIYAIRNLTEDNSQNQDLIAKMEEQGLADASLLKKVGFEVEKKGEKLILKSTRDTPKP
UniProt Q9UBL3, whole entry, looked up: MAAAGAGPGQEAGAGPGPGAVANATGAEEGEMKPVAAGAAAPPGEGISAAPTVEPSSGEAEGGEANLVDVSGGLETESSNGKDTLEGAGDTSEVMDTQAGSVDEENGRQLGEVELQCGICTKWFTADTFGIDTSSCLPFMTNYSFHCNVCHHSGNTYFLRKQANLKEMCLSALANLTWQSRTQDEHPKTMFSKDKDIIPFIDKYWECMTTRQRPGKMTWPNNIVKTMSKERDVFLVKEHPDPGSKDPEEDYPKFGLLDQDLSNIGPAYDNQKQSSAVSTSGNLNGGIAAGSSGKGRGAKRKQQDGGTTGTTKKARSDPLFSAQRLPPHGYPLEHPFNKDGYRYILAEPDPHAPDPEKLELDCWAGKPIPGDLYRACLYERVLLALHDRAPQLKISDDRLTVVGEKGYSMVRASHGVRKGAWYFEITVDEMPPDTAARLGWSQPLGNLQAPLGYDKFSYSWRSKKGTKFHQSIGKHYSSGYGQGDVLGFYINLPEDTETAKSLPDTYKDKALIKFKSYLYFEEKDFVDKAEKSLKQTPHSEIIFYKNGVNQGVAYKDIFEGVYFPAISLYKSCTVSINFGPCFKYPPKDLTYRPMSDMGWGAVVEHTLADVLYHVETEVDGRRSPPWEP

The other results are listed elsewhere or left out.

Compound in the test: Cn1cc(-c2ccc3c(c2)CCN3C(=O)Cc2cccc(C(F)(F)F)c2)c2c(N)ncnc21
In words: log2 fold change, soluble protein after heating vs DMSO (PISA); higher = thermal stabilisation; K562 lysate, 10 uM; active = over 0.2 and 3.5 SD of the protein, either way, in both replicates (recomputed). The method, boiled down:
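K562 pellets were dounce-homogenised in PBS pH 7.4 with 1 mM MgCl2, and the crude extract at 1 mg/mL protein was treated with 10 μM compound for 30 min. Aliquots were heated for 3 min across 48°C-58°C, pooled, and brought to 0.5% NP-40 at 4°C; soluble protein was the supernatant after 21,000xg for 90 min. Soluble protein was quantified by TMTpro 16plex LC-MS/MS with channel sums equalised, and reported as log2 fold change in thermal stability against DMSO controls, with values from duplicates.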
On to ASF1A (UniProt Q9Y294), for which the log2 fold change is inactive: 0.002.
Consider ATP2B1 isoform 1 (UniProt P20020), for which the log2 fold change is inactive: -0.004.
On to ASF1B (UniProt Q9NVP2), for which the log2 fold change is inactive: -0.043.
Take ATP2A3 isoform 2 (UniProt Q93084): the log2 fold change is inactive: 0.025.
Regarding ATL2 (UniProt Q8NHH9), the log2 fold change was inactive: -0.004.
Regarding ASCC2 (UniProt Q9H1I8), the log2 fold change was inactive: 0.026.
Take ASNS (UniProt P08243): the log2 fold change is inactive: 0.025.
As to ATP9B (UniProt O43861), the log2 fold change was inactive: -0.049.
With ASS1 (UniProt P00966), the log2 fold change is inactive: 0.074.
Next, ATP5F1D (UniProt P30049): inactive: 0.008; ATG4B (UniProt Q9Y4P1): inactive: 0.044.
With ATG2A isoform 3 (UniProt Q2TAZ0), the log2 fold change was inactive: 0.042.
With ATP5IF1 (UniProt Q9UII2), the log2 fold change was inactive: -0.028.
With ATP6V1B1 (UniProt P15313), the log2 fold change is inactive: -0.021.
On to ATP6V1A (UniProt P38606), for which the log2 fold change was inactive: -0.018.
Regarding ATE1 isoform 2 (UniProt O95260), the log2 fold change was inactive: 0.017.
For ATP5MF-PTCD1 (UniProt G3V325), the log2 fold change was inactive: 0.031.
As to ATP5MPL (UniProt P56378), the log2 fold change was inactive: 0.072.
For the target ATP5PB (UniProt P24539), the log2 fold change is inactive: 0.
On to AUP1 (UniProt Q9Y679), for which the log2 fold change was inactive: 0.038.
Then ATXN10 (UniProt Q9UBB4), with inactive: 0.026; and ASH2L (UniProt Q9UBL3), with inactive: 0.015; and ATOX1 (UniProt O00244), with inactive: -0.041.
